This passage reports binding results from paper PMC9038911.

The target in test [1] is T1, signal peptide-truncated SsPINE1 (SsPINE1^ΔSP), yeast two-hybrid fusion (Sclerotinia sclerotiorum).
T1 sequence: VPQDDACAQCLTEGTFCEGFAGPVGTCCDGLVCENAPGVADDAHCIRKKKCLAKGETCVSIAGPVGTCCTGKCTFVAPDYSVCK
Description: two-hybrid; targeted assay, GAL4-based Matchmaker Gold; pGADT7 and pGBKT7 constructs co-transformed in pairs into yeast strain Gold; SD/-His,-Ade,-Leu,-Trp with aureobasidin A, X-α-gal staining; SsPINE1 and AtPGIP1 each as bait and as prey.

The target of test [2] is T2, AtPGIP1-3xFlag (Arabidopsis thaliana) (UniProt Q9M5J9).
T2 sequence: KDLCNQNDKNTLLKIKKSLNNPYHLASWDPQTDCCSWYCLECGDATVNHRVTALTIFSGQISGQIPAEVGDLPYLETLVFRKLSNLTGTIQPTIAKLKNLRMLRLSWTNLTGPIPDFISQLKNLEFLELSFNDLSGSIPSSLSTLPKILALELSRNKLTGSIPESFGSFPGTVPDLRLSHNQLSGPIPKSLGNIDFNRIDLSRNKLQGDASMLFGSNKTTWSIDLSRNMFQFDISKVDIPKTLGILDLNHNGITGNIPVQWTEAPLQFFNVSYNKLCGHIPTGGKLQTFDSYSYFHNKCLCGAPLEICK
The test is described as follows: co-IP; GFP- and 3xFlag-tagged constructs co-infiltrated in N. benthamiana; leaf lysate 48 h after infiltration; anti-Flag agarose (Flag IP) or anti-GFP agarose (GFP IP); Western blot with anti-GFP or anti-Flag.

Test [3] addresses T2, AtPGIP1-3xFlag (Arabidopsis thaliana). The test is described as follows: co-IP; modified co-IP: purified competing protein from yeast (0, 100 ng and 10 μg) added to leaf lysate of co-infiltrated leaves, 30 min, then Flag IP and anti-GFP blot; pair co-expressed in the leaves.
The target is the same in test [4]. Description: condition: only with 10 μg purified SsPINE1-GFP added to the lysate; co-IP; modified co-IP: purified competing protein from yeast (0, 100 ng and 10 μg) added to leaf lysate of co-infiltrated leaves, 30 min, then Flag IP and anti-GFP blot; pair co-expressed in the leaves.
Test [5] has as its target SsPG1-GFP (expressed in N. benthamiana) (Sclerotinia sclerotiorum). The test is described as follows: co-IP; GFP- and 3xFlag-tagged constructs co-infiltrated in N. benthamiana; leaf lysate 48 h after infiltration; anti-Flag agarose (Flag IP) or anti-GFP agarose (GFP IP); Western blot with anti-GFP or anti-Flag.

These are yes or no findings as the source states them, for the method shown. For some assays here: Binding seen in cells or lysates may run through a third protein. For some assays here: Binding can be weak; no strength is given. Sequences can lack the tags named with a protein.

As for “AT2G35790, yeast two-hybrid prey (Arabidopsis thaliana)”, in test [1], the binding result is given as “no binding”.

Consider “SsPG1-GFP (expressed in N. benthamiana) (Sclerotinia sclerotiorum) (enzyme)”, for which the values for the binding result in test [2], in test [3] and in test [4] were “binds”, “binds” and “no binding”, respectively.

B1: AtPGIP1-3xFlag (protein, UniProt Q9M5J9 22-330)
chain: KDLCNQNDKNTLLKIKKSLNNPYHLASWDPQTDCCSWYCLECGDATVNHRVTALTIFSGQISGQIPAEVGDLPYLETLVFRKLSNLTGTIQPTIAKLKNLRMLRLSWTNLTGPIPDFISQLKNLEFLELSFNDLSGSIPSSLSTLPKILALELSRNKLTGSIPESFGSFPGTVPDLRLSHNQLSGPIPKSLGNIDFNRIDLSRNKLQGDASMLFGSNKTTWSIDLSRNMFQFDISKVDIPKTLGILDLNHNGITGNIPVQWTEAPLQFFNVSYNKLCGHIPTGGKLQTFDSYSYFHNKCLCGAPLEICK
Consider B1, for which the binding entry in test [5] is reported as “binds”.
